The series has as its target GATA3 WT (UniProt P23771). The experiment in a line: EMSA. The settings on record: 10 mM MgCl2, 1 uM DNA; residues 1-443. For orientation: A gel shift assay detects complexes by their altered migration in electrophoresis.

Amino acid sequences for entries named in this document (tags omitted). A change or cut given only in a name is not applied to a line headed by its entry.
UniProt P23771: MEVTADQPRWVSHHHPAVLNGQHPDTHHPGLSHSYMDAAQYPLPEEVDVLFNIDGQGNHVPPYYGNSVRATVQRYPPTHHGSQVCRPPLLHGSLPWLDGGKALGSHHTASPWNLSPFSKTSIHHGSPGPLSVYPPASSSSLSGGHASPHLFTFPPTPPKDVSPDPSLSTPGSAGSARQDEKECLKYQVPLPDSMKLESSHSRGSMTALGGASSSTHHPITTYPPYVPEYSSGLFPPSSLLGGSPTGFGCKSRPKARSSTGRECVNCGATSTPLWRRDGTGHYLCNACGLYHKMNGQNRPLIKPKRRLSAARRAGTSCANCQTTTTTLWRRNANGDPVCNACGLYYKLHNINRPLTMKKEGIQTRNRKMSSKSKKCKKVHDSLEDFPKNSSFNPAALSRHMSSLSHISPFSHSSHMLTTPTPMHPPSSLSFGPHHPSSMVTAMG

The exact form of at least one protein or probe is not confirmed. At least one verdict rests on a figure or table, not on a statement of the authors.

As to “AATGTCCATCTGATAAGACG (double strand) [GATA-DNA]”, the binding result is “binds”.

The values above are taken from doi:10.1101/2023.05.02.538687.
